For some assays here: At least one result comes from cells or an extract, where the contact may be indirect. For some assays here: Construct, isoform or probe ends are uncertain for at least one entry. For some assays here: Negatives hold for the conditions tested.
Columns and labels:
[1] = molecular target: ErbB-2 (HER2), native (Homo sapiens) (UniProt P04626); assay: pull-down; conditions: protein in an extract, label: biotin, single-stranded DNA
[2] = molecular target: ErbB-2 (HER2), cell surface on N87 cells (Homo sapiens) (UniProt P04626); assay: flow cytometry; conditions: 1 uM, 4 C, 30 min, protein on the cell surface, protein details: endogenous, label: biotin, single-stranded DNA
[3] = molecular target: ErbB-2 (HER2), cell surface on N87 cells (Homo sapiens) (UniProt P04626); assay: activity in cells; conditions: protein on the cell surface, protein details: endogenous, single-stranded DNA
[4] = molecular target: ErbB-1 (EGFR) (Homo sapiens) (UniProt P00533); assay: pull-down; conditions: A431 extract; detection with ErbB-2 kinase domain antiserum; protein in an extract; protein details: endogenous, overexpressed in A431 cell extract; label: biotin; single-stranded DNA
[5] = molecular target: ErbB-2 (HER2), native (Homo sapiens) (UniProt P04626); assay: ELONA; conditions: 0-100 nM titration on antibody-captured ErbB-2; competed by unlabelled 2-2(t) (FIG. 2B); also positive in dot blot and pull-down, improved over monomer (FIG. 4A, 4C); protein in an extract; label: biotin; single-stranded DNA; variant of 2-2
[6] = molecular target: ErbB-2 (HER2), native (Homo sapiens) (UniProt P04626); assay: binding assay; conditions: double immunoblot of N87 extract, 100 nM aptamer; protein in an extract; label: biotin; single-stranded DNA

Sequence: AGATTGCACTTACTATCT
- binding result ([1]; control primer, negative in double immunoblot at 100 nM and in pull-down): no binding

Sequence: AGATTGCACTTACTATCTAGATTGCACTTACTATCTAGATTGCACTTACTATCT [PR(t) trimeric control primer (identity of primer inferred)]
- binding result [2]: no binding
- binding result [1]: no binding
- functional effect of the aptamer ([3]; no effect on ErbB-2 stability or N87 proliferation at 10 uM): not active

Sequence: GCAGCGGTGTGGGG [2-2]
- binding result ([1]; pull-down from N87 extract, 4 C, also positive in double immunoblot at 100 nM, very faint or no signal in dot blot (FIG. 4A)): binds
- binding result [4]: no binding

Sequence: GCAGCGGTGTGGGGGCAGCGGTGTGGGGGCAGCGGTGTGGGG [2-2(t) trimeric aptamer]
- binding result ([2]; saline with 0.1% albumin, variant of 2-2): binds
- binding result [5]: binds
- functional effect of the aptamer ([3]; induces ErbB-2 internalization and lysosomal degradation, inhibits N87 proliferation at 10 uM, variant of 2-2): active

Sequence: GGGCTGGGGTGACGT [B212]
- binding result [6]: binds

Sequence: GGGCTGGTGTGGCGG [2-1]
- binding result [6]: binds
